This passage reports binding results from publication PMC12867140.

Protein sequences, listed by entry. Tags and fused reporters are not part of them.
UniProt P01106: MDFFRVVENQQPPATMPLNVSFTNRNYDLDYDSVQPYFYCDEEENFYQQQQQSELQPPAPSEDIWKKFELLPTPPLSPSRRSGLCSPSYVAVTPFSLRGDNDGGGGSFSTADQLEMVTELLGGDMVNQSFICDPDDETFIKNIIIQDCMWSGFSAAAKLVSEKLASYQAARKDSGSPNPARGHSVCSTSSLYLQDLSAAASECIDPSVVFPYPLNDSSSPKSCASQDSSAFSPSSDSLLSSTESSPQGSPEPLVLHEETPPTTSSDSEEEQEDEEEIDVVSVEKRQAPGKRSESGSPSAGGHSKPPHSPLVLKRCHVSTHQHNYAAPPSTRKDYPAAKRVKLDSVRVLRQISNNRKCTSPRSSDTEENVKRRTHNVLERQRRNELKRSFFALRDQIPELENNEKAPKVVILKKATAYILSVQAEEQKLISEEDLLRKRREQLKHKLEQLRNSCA
UniProt P46934: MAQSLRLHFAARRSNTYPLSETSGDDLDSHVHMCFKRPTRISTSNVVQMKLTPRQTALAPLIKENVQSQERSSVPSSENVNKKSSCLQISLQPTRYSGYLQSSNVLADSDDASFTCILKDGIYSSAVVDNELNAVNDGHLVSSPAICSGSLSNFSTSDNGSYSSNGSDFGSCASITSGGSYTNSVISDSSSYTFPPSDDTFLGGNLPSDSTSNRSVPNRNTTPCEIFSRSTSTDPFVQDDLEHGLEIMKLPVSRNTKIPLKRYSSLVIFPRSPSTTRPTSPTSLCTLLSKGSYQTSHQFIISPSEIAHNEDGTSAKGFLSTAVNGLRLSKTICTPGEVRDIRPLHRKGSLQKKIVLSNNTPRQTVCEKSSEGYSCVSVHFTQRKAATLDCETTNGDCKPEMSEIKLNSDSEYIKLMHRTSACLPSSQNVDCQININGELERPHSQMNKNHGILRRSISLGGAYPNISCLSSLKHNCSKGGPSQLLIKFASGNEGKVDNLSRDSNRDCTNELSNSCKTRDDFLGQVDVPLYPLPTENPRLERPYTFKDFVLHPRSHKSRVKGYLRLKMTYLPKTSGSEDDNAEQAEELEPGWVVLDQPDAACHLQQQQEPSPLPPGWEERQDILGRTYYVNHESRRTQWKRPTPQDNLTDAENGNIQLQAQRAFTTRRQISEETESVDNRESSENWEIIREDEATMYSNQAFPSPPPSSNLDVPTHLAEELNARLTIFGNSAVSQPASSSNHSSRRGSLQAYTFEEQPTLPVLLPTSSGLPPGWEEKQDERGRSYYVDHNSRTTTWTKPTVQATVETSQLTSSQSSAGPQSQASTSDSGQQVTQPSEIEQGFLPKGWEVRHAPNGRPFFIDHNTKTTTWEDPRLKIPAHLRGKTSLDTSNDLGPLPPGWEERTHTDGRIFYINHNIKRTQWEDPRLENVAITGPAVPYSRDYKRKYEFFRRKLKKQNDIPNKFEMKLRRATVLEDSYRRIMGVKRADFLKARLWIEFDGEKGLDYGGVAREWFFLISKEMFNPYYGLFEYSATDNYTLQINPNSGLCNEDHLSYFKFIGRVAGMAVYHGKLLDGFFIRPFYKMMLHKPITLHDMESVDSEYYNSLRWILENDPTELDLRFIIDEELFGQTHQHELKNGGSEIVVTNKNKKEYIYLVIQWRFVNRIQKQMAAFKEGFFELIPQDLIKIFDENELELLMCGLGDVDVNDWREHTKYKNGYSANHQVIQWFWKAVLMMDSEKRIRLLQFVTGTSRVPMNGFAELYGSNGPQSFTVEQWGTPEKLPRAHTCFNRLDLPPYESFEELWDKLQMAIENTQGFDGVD

No constants are given. Whether binding was seen depends on the method and setting. Binding seen in cells or lysates may run through a third protein. Some entries that bind do so weakly or less than the wild type.

The assay concerns the target c-Myc (human (endogenous in PANC-1 and AsPC-1)) (UniProt P01106). The assay can be described thus: co-IP; reciprocal co-IP of NEDD4 and c-Myc; endogenous co-IP in PANC-1 cells transfected with control or HDAC5 siRNAs.

For the substance “NEDD4 (from UniProt P46934 1-1319) (enzyme)”, the binding entry is recorded as “binds”.
